Experimental data as given in PubChem BioAssay AID1439 (NMMLSC, 2008).
Several values for one entry are separate records, joined by “and”; a condition that tells them apart may be missing. Equal values may be shown once. Among all 220,000 compounds or so, about 770 (0.35%) were called active. This list was built around the results that the source calls inconclusive (neither active nor inactive); the mix of calls is not that of the screen. Cut-off read from the data, not from the text of the source: active = binding response below about 49% or above about 150%; inconclusive = no clear call, values can overlap the other calls; inactive = in between.

By UniProt entry, the sequences of proteins in these tests, tags left out.
UniProt P09471, whole entry, looked up: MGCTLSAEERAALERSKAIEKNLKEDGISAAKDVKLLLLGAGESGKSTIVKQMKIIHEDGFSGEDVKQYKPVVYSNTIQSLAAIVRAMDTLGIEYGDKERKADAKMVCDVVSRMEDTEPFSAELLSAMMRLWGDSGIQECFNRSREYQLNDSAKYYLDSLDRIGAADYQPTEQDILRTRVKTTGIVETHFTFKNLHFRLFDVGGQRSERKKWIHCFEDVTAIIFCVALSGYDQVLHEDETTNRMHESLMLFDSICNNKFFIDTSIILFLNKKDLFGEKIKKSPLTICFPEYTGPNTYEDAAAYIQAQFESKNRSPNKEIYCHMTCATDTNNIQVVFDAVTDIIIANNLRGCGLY

Target: Guanine nucleotide-binding protein G(o) subunit alpha (Homo sapiens) (UniProt P09471)
Assay: RGS7-Galphao binding modulators, primary screen, biochemical, multiplexed bead flow cytometry (AID 1439);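 note: fluorescent Galphao held in activated GDP-AlF4 state binding bead-coupled RGS7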
Settings: at 10 µM, actives lie on both sides

| Structure (SMILES) | binding response (% of control) |
| --- | --- |
| O=C(COC(=O)c1cccc(C(=O)OCC(=O)NC2CC2)n1)NC1CC1 | inconclusive: 99.5% |
| COC(=O)c1cc(OC)c(OC)cc1NC(=O)Nc1ccccc1F | inconclusive: 97.5% |
| O=C(NCc1cccs1)c1cc(-c2ccccn2)nc2ccc(Br)cc12 | inconclusive: 101% |
| Cc1cc(C(=O)CN2C(=O)C(=O)N(C)C2=O)c(C)n1-c1cccc(S(=O)(=O)N2CCOCC2)c1 | inconclusive: -2.3% |
| CSc1cccc(NC(=O)N2CCN(C)CC2)c1 | inconclusive: 191% |
| COc1ccccc1N1C(=O)C2C(C(=O)c3ccccc3)=NN(c3ccc(Br)cc3)C2C1=O (centres undefined) | inconclusive: 88.7% |
| Nc1c(-c2nn[nH]n2)cnn1-c1cc(Cl)cc(Cl)c1 | inconclusive: 98.6% |
| O=C(O)c1nn(CC(=O)N2CCN(S(=O)(=O)c3ccc(Cl)cc3)CC2)c(=O)c2ccccc12 | inconclusive: 103% |
| COCCOc1cc(COC)nc(-c2cccc(C)c2)n1 | inconclusive: 172% |
| COc1ccc(NS(=O)(=O)c2ccc(O)c(C(=O)OCC(=O)NC3CCCCC3)c2)cc1 | inconclusive: 85% |
| COc1ccc(OC)c(/C=C/C(=O)OCC(=O)Nc2ccc(Cl)c(S(=O)(=O)N(C)C)c2)c1 | inconclusive: 114% |
| O=C(c1ccc2ccccc2n1)N1CCN(c2ccccc2)CC1 | inactive: 100% |
| Cc1nc2ccccc2n1CC(=O)OCC(=O)NC1CC1 | inconclusive: 100% |
| CCCCc1ccc(S(N)(=O)=O)cc1 | inconclusive: 102% |
| Nc1c(C(=O)NCc2ccco2)nnn1-c1ccccc1 | inactive: 104% |
| COc1ccc(CCNC(=S)Nc2ccc(C(C)C)cc2)cc1 | inconclusive: 65.2% |
| COC(=O)c1cccc(NC(=O)c2ccc(OC)c(Cl)c2)c1 | inconclusive: 79.6% |
| Cn1c(=O)c2c(nc(SCCN3CCOCC3)n2Cc2ccccc2Cl)n(C)c1=O | inactive: 103% |
| CCC(C)(C)NC(=O)c1ccc2c(c1)OCCO2 | inactive: 102% |
| COc1ccc(Cn2c(C3CCCCC3)nc3c(c(=O)c4ccccc4n3C)c2=O)cc1 | inconclusive: 150% |

Rewritten field by field: entries from further up.
Cc1cc(C(=O)CN2C(=O)C(=O)N(C)C2=O)c(C)n1-c1cccc(S(=O)(=O)N2CCOCC2)c1
  binding response (% of control): inconclusive: -2.3%
CSc1cccc(NC(=O)N2CCN(C)CC2)c1
  binding response (% of control): inconclusive: 191%
COc1ccccc1N1C(=O)C2C(C(=O)c3ccccc3)=NN(c3ccc(Br)cc3)C2C1=O (centres undefined)
  binding response (% of control): inconclusive: 88.7%
Nc1c(-c2nn[nH]n2)cnn1-c1cc(Cl)cc(Cl)c1
  binding response (% of control): inconclusive: 98.6%

Further results

| Structure (SMILES) | binding response (% of control) |
| --- | --- |
| CCn1c(SCC(=O)Nc2ccc(OC)cc2OC)nc2nc3c(cc2c1=O)COC(C)(C)C3 | inconclusive: 63.8% |
| CN1CCN(c2ccc(CNC(=O)c3ccco3)cc2)CC1 | inconclusive: 121% |
| COc1cccc(/C=N/NC(=O)CCn2cnc3ccccc32)c1 | inconclusive: 265% |
| COc1ccccc1/C=C/C=c1\sc2nc(=O)c(Cc3ccccc3)nn2c1=O | inconclusive: 87.2% |
| COC(=O)c1ccccc1NC(=S)N(Cc1ccc2c(c1)OCO2)Cc1cc2ccc(C)cc2[nH]c1=O | inactive: 103% |
| C=C1c2cc(C)c(C)cc2NC(=O)N1c1ccccc1 | inconclusive: 83.4% |
| Cc1ccc(C)c(NC(=O)COC(=O)c2ccc3c(c2)OCO3)c1 | inconclusive: 88.6% |
| Cc1ccc(S(=O)(=O)N2CCN(CC(=O)N/N=C/c3ccccc3OCC(=O)O)CC2)cc1 | inconclusive: 49.8% |
| Cn1nccc1NS(=O)(=O)c1ccc(F)cc1 | inconclusive: 63.2% |
| O=C(CCc1nnc(Cc2c[nH]c3ccccc23)o1)NCC1CC12CCCCC2 (centres undefined) | inactive: 101% |
| O=C(Nc1ccc(S(=O)(=O)Nc2ncccn2)cc1)C1COc2ccccc2O1 (centres undefined) | inconclusive: 102% |
| OCCN(Cc1ccccc1)Cc1ccc(C(F)(F)F)cc1 | inactive: 98.3% |
| CC1Cc2ccccc2N1S(=O)(=O)c1cccc(C(=O)OCC(=O)NCc2ccco2)c1 (centres undefined) | inconclusive: 166% |
| C=CCn1c(-c2ccccc2)nc(=S)c2c1CCCC2 | inconclusive: 102% |
| Cc1sc2nc(CSc3nc4ccccc4s3)[nH]c(=O)c2c1C | inconclusive: 102% |
| O=C1c2ccccc2C(=O)N1CCc1c[nH]c2ccc(O)cc12 | inactive: 96% |
| CN1c2ccccc2C(=O)NC1c1ccc([N+](=O)[O-])s1 (centres undefined) | inconclusive: 51.7% |
| Cn1c(=O)c2c(SCc3ccccc3)nc(C3CC3)nc2n(C)c1=O | inconclusive: -74.7% |
| COc1cccc2c(=O)cn[nH]c12 | inactive: 90.1% |
| CC1(C)CC2(CC(C)(C)N1)OC(=O)N1CCc3ccccc3C12C (centres undefined) | inactive: 101% |

| Structure (SMILES) | binding response (% of control) |
| --- | --- |
| CCCNC(=O)CN(c1cccc(F)c1)S(C)(=O)=O | inactive: 117% |
| O=C(N/N=C/c1ccc(N2CCOCC2)s1)c1ccc(NS(=O)(=O)c2cccs2)cc1 | inconclusive: 90% |
| O=C(Nc1ccc(S(=O)(=O)N2CCCC2)cc1)N1c2ccccc2Sc2ccccc21 | inactive: 127% |
| O=C(O)CCNS(=O)(=O)c1ccc2ccccc2c1 | inactive: 100% |
| Cc1cc(C)c2nc(Cl)c(Cl)nc2c1 | inconclusive: 188% |
| Cc1nc2ccc(F)cc2cc1C(=O)Nc1cccc(Cl)c1C | inactive: 94.3% |
| Cn1ccc(NC(=O)Nc2ccc(Cl)cc2)n1 | inconclusive: 105% |
| Cc1ccc2c(c1)sc1nc(=O)n(-c3cccc(Cl)c3)c(=O)n12 | inactive: 109% |
| Cc1nc(C)c(-c2ccn(C(=O)NC(C)C)n2)s1 | inconclusive: 89.2% |
| COc1ccc(-c2cn[nH]c2-c2ccc(OCc3ccccc3F)cc2O)cc1OC | inconclusive: -21.3% |
| O=C(COC(=O)CCC1CCCC1)Nc1ccccc1OC(F)F | inconclusive: 110% |
| Fc1ccc(Nc2nnc(C(F)(F)F)s2)cc1 | inconclusive: 93.9% |
| Cc1cccc(NC(=S)NC23CN4CN(CN(C4)C2)C3)c1C | inactive: 99.9% |
| CCC1SC(C)C/C(=N/NC(N)=O)C1C (centres undefined) | inconclusive: 116% |
| S=C1NCN(Cc2ccco2)CN1c1cccc2ccccc12 | inconclusive: 127% |
| C=CCNC(=O)C1CCN(c2cc(C)nc(-c3ccccc3)n2)CC1 | inconclusive: 99.9% |
| COc1ccc(OCCSc2nnc(-c3ccccc3)n2N)cc1 | inactive: 118% |
| CN1CCN(/N=C/c2ccc(OCc3ccccc3)cc2)CC1 | inconclusive: 125% |
